Test results as given in patent US20240366728A1, “Treatment of Diabetes Mellitus” (Carmot Therapeutics Inc., priority 2023, published 2024).
Values joined by “and” are separate entries in the source; they are usually repeats but may differ in a detail not shown here. Identical values can stand only once. At least one compound was matched to its structure with a doubt left.

The chains behind the UniProt entries cited, without tags or fusion partners. Residues count along the entry.
UniProt P43220, 24-463: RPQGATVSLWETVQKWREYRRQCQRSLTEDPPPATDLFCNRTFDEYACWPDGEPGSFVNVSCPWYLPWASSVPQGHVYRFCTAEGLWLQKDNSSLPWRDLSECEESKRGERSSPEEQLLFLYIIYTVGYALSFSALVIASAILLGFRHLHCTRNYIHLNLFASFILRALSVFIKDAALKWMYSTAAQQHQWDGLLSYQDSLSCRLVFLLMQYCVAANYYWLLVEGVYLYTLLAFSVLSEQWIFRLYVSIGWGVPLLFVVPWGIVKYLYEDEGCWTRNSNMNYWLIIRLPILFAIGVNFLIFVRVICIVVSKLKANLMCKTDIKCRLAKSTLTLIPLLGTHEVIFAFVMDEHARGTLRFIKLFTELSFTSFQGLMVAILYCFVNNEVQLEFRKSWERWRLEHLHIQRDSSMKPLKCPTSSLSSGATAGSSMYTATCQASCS

What was measured:
human GIPR [1] = target: T1, human GIPR (Homo sapiens, UniProt P48546); test: β-arrestin-2 recruitment (NanoBiT), human GIPR; type: cell-based
T1 sequence (P48546 22-466): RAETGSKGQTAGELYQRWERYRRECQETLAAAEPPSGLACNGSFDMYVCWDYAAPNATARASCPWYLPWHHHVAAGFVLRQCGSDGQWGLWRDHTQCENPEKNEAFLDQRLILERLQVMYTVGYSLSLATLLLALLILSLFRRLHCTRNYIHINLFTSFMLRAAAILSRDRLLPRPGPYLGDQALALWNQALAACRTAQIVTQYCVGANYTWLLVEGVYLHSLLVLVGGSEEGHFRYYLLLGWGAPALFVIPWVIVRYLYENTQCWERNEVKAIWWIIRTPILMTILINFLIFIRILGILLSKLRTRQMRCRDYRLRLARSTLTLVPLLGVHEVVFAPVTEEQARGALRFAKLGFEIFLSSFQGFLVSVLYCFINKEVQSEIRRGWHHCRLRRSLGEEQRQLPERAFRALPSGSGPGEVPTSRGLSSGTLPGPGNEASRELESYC
Experimental: To measure GLP-1R and GIPR-mediated β-arrestin recruitment, we utilized Promega's NanoBiT® technology or NanoLuc® Binary Technology. The NanoLuc luciferase is split into two subunits, called LgBiT and SmBIT, which are expressed in HEK293 cells as fusion proteins at the C-terminus of GLP-IR or GIPR and the N-terminus of β-arrestin-2. […] The next day, the media was removed and replaced with […] 1:100 dilution of Nano-Glo® Live Cell Substrate in Opti-MEM™ and equilibrated to room temperature for ten minutes. Background luminescence was measured before 10 nL compound was added using an ECHO Acoustic Liquid Handler.
To measure GLP-1R and GIPR-mediated β-arrestin recruitment, Promega's NanoBiT® technology or NanoLuc® Binary Technology were utilized. Both allow for the detection and quantification of protein: protein interactions in live cells (Samms et al., Trends Endocrinol Metab 31:410-21). The NanoLuc luciferase is split into two subunits, called LgBiT and SmBIT, which are expressed in HEK293 cells as fusion proteins at the C-terminus of GLP-1R or GIPR and the N-terminus of β-arrestin-2, respectively. […] Background luminescence was measured before 10 nL compound was added using an ECHO Acoustic Liquid Handler. Luminescence was measured at 1.5-minute intervals for 30 minutes.

DIO C57BL/6J mice = test: chronic daily SC dosing in DIO mice (body weight, food, glucose, insulin, tissue weights); type: in vivo, mouse; settings: for mean body weight reduction from baseline: 14 days, ±SD
Experimental: Body weight and food consumption were measured daily (FIGS. 8 and 9). On the last day of the study mice were fasted for 5 hours. At the end of the fasting period, glucose was measured (FIG. 6) and plasma was collected for insulin analysis. Plasma insulin was measured using an MSD kit. Fasting glucose and insulin were used to calculate the log (HOMA-IR) (FIG. 7).
Body weight was measured daily (FIG. 11). […] On the last day of the study, glucose was measured, and plasma was collected for insulin analysis. Plasma insulin was measured using an MSD kit. Glucose and insulin were used to calculate log (HOMA-IR) (FIG. 10).
DIO mice were acclimated to daily weighing and handling for approximately 1 week until their weight had stabilized. Mice were injected subcutaneously once daily with the indicated dose of peptide, or vehicle, based on current body weight. Injections were performed six hours before the dark cycle started to approximate reaching Tmax when the dark cycle started. Where indicated, 24-hour food consumption studies were performed as described above. Body weight as a percentage of initial weight was calculated daily by dividing the daily body weight by the body weight taken before the first dose of peptide, multiplied by 100%. Blood glucose was determined at study termination, and blood was collected to quantify plasma insulin concentrations. Mice were sedated by isoflurane and euthanized by decapitation. […] Plasma was stored at −80° C. until analysis. Subcutaneous and inguinal fat and the liver were removed and weighed.
DIO and ob/ob mice were acclimated to daily weighing and handling for approximately one week until weight had stabilized. […] Injections were performed six hours before the start of the dark cycle to approximate reaching Tmax when the dark cycle started. […] In both the DIO and ob/ob weight loss studies, body weight as a percentage of initial weight was calculated daily by dividing the daily body weight by the body weight taken before the first dose of peptide, multiplied by 100%. Blood glucose was determined at study termination, and blood was collected to quantify plasma insulin concentrations. Mice were sedated by isoflurane and euthanized by decapitation. […] Subcutaneous and inguinal fat and the liver were removed and weighed.

[2] = tested on: participants with overweight/obesity; test: Phase 1 first-in-human SAD/MAD study: meal tolerance test and body weight; type: in vivo; settings: for D13 BW Change, first figure of the cell / D21 BW Change, first figure of the cell: baseline BW given in kg
[3] = tested on: participants with obesity and participants with T2DM; test: CT-868-003 crossover study (CT-868 5/3.25/3.25 mg, liraglutide 0.6/1.2/1.2 mg SC): graded glucose infusion; type: in vivo, human
human GLP-1R = human GLP-1R (Homo sapiens, UniProt P43220); test: receptor internalization (Nano-Glo HiBiT), human GLP-1R; type: cell-based; set-up: host or cells: HEK293; settings: 60 to 120 minutes
human GIPR [4] = target: T1, human GIPR; test: cAMP accumulation, SNAP-human GIPR CHO-K1 cells
lean C57BL/6J mice = test: intraperitoneal glucose tolerance test in lean mice
[5] = DIO mice, 30 nmol/kg, end of study

In the case of `CCCCCCCCCCCCCCCC(=O)N[C@@H](CCC(=O)NCCCC[C@H](NC(=O)[C@H](CO)NC(=O)[C@@H]1CCCN1C(=O)[C@@H]1CCCN1C(=O)[C@@H]1CCCN1C(=O)[C@H](C)NC(=O)CNC(=O)[C@H](CO)NC(=O)[C@H](CO)NC(=O)[C@@H]1CCCN1C(=O)CNC(=O)CNC(=O)[C@H](C)NC(=O)[C@H](CC(C)C)NC(=O)[C@H](CC(C)C)NC(=O)[C@H](Cc1c[nH]c2ccccc12)NC(=O)[C@H](CC(N)=O)NC(=O)[C@@H](NC(=O)[C@H](Cc1ccccc1)NC(=O)[C@H](CCC(=O)O)NC(=O)C(C)(C)NC(=O)[C@H](C)NC(=O)[C@H](C)NC(=O)[C@H](CCC(N)=O)NC(=O)[C@H](CCCCN)NC(=O)[C@H](CC(=O)O)NC(=O)[C@H](CC(C)C)NC(=O)[C@H](Cc1ccc(O)cc1)NC(=O)[C@@H](NC(=O)[C@H](CO)NC(=O)[C@H](Cc1ccc(O)cc1)NC(=O)[C@H](CC(=O)O)NC(=O)[C@H](CO)NC(=O)[C@@H](NC(=O)[C@H](Cc1ccccc1)NC(=O)[C@@H](NC(=O)CNC(=O)[C@H](CCC(=O)O)NC(=O)CSCC(=O)NCCN1CCCCC1=O)[C@@H](C)O)[C@@H](C)O)[C@@H](C)CC)C(C)C)C(N)=O)C(=O)O` [CT-868], the “β-arrestin recruitment at GIPR (in words)” value (human GIPR [1]) is reported as “complete absence of β-arrestin recruitment”, the “body weight on chronic administration (in words)” value (DIO C57BL/6J mice; DIO and ob/ob mice) is reported as “dose-dependently reduced body weight” and the “mean body weight reduction from baseline” value (DIO C57BL/6J mice; DIO mice, 3 nmol/kg daily SC) is reported as 6.8±1.2%. For the same compound, the “mean body weight reduction from baseline” value (DIO C57BL/6J mice; DIO mice, 10 nmol/kg daily SC) was 10.7±0.6%, the “mean body weight reduction from baseline” value (DIO C57BL/6J mice; DIO mice, 30 nmol/kg daily SC) was 18.4±1.0% and the “reduction in eWAT weight vs vehicle” value (DIO C57BL/6J mice; [5]) was 58%. For the same compound, the “reduction in iWAT weight vs vehicle” value (DIO C57BL/6J mice; [5]) was 61%, the “reduction in liver weight vs vehicle” value (DIO C57BL/6J mice; [5]) was 52% and the “body weight after daily administration for 14 days (in words)” value [2] was “dose-dependent body weight reduction”. The “CT-868 concentration (AUC0-τ) and weight reduction at Day 14 (in words)” value ([2]; MAD) was “significantly correlated”, the “D21 BW Change (%)” value ([2]; MAD 1.5 mg/day) was −1.91% and the “D13 BW Change, first figure of the cell” value ([2]; MAD 1.5 mg/day) was −2.62 (−2.62%). The “D21 BW Change, first figure of the cell” value ([2]; MAD 1.5 mg/day) was −1.90, the “D13 BW Change (%)” value ([2]; MAD 5.0 mg/day) was −3.37% and −3.38% and the “D21 BW Change (%)” value ([2]; MAD 5.0 mg/day) was −0.92(−0.92%). For the same compound, the “D13 BW Change, first figure of the cell” value ([2]; MAD 5.0 mg/day) was −3.37, the “D21 BW Change, first figure of the cell” value ([2]; MAD 5.0 mg/day) was −0.92(−0.92%) and the “MTT AUC for glucose, insulin, C-peptide (in words)” value ([2]; SAD cohorts) was “trend toward lower mean AUC values for glucose, insulin, and C-peptide as a function of drug dose”. For the same compound, the “change in ISR/GLUC at GIRmax” value ([3]; T2DM) was 1.1 (0.1) pmol/kg/min, the “Slope of the ISR/G, LS Mean” value ([3]; T2DM, graded glucose infusion) was 2.43 and the “Slope of the ISR/G, LS mean difference CT-868 vs liraglutide” value ([3]; T2DM, printed in Liraglutide column) was 0.02. The “ISR/G slope CT-868 vs liraglutide (in words)” value ([3]; participants with T2DM) was “no difference between the ISR/G slopes for CT-868 and liraglutide”, the “LS mean difference in ISR/G slope, CT-868 vs liraglutide” value ([3]; participants with obesity) was 2.750 and the “LS mean difference in ISR/G slope, CT-868 vs placebo” value ([3]; participants with obesity) was 5.691. For the same compound, the “GLP-1R internalization (in words)” value (human GLP-1R) was “effectively suppresses GLP-1R and GIPR internalization”, the “agonist type for cAMP accumulation at human GIPR (in words)” value (human GIPR [4]) was “partial agonist of cAMP accumulation” and the “fold less potent than native ligand GIP” value (human GIPR [4]; cAMP) was 16 fold. For the same compound, the “post-prandial plasma insulin at 15 min vs vehicle (in words)” value (lean C57BL/6J mice; 10 nmol/kg) was “significantly higher”, the “plasma insulin AUC in IPGTT (in words)” value (lean C57BL/6J mice; 3, 10, 30 nmol/kg) was “no significant differences between the vehicle and the administered doses” and the “glucose excursion in IPGTT (in words)” value (lean C57BL/6J mice; single SC 3 nmol/kg (lowest dose tested)) was “substantially and significantly suppressed glucose excursion”.
